The list shows a part of the results.
Assays:
Test in all cases: log2 fold change, soluble protein after heating vs DMSO (PISA); higher = thermal stabilisation; K562 lysate, 10 uM; active = over 0.2 and 3.5 SD of the protein, either way, in both replicates (recomputed)
erlotinib = compound: C#Cc1cccc(Nc2ncnc3cc(OCCOC)c(OCCOC)cc23)c1 [erlotinib]
Summary of the method: (§1)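 Quantification was by TMTpro 16plex LC-MS/MS with equalised channel sums, applied to the supernatant after 21,000xg for 90 min. Samples were crude K562 extract at 1 mg/mL protein in PBS pH 7.4 with 1 mM MgCl2, treated with 10 μM compound for 30 min, heated for 3 min across 48°C-58°C, pooled and brought to 0.5% NP-40 at 4°C. Values are log-two fold changes in thermal stability relative to solvent controls, from duplicates.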

By UniProt entry, the sequences of proteins in these tests, tags left out. Where a name states a change or a piece, a line headed by the entry shows the natural chain unless it says otherwise.
UniProt O95279: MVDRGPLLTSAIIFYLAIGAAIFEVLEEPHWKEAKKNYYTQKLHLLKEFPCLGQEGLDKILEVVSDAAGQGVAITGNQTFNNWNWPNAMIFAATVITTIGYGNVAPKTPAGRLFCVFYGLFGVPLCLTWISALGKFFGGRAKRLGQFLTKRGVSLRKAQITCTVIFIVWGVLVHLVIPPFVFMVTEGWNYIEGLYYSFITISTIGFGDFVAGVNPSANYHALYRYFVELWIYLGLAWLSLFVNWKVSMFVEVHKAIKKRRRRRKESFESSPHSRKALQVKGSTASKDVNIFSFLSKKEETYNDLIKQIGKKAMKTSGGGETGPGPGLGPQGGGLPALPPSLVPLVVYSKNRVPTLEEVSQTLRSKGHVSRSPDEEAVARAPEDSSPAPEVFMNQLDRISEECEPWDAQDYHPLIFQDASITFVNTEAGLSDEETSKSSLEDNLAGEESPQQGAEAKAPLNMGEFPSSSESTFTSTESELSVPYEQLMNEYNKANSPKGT
UniProt P05556, whole entry, looked up: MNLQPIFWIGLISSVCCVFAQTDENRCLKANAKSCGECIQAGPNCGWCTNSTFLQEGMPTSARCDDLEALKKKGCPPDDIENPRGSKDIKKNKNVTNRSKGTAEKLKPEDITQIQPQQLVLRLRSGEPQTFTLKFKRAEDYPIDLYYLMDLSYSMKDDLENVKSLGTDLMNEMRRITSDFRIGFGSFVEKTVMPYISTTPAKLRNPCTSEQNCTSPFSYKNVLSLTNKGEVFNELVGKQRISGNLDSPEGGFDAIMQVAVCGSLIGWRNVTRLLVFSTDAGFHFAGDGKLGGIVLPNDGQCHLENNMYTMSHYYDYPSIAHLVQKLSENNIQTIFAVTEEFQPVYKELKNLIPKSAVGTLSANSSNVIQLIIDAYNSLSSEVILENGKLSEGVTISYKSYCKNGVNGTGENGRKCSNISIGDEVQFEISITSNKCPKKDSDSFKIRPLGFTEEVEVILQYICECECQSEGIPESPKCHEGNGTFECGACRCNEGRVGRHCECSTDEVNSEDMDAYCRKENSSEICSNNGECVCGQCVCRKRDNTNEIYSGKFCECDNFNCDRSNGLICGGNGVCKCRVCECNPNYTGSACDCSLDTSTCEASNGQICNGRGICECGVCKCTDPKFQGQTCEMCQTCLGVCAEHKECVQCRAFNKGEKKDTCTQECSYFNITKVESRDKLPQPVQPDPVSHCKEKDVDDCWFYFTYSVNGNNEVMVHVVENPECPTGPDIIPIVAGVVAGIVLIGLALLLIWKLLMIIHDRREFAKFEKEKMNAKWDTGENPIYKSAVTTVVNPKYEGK
UniProt Q7L273: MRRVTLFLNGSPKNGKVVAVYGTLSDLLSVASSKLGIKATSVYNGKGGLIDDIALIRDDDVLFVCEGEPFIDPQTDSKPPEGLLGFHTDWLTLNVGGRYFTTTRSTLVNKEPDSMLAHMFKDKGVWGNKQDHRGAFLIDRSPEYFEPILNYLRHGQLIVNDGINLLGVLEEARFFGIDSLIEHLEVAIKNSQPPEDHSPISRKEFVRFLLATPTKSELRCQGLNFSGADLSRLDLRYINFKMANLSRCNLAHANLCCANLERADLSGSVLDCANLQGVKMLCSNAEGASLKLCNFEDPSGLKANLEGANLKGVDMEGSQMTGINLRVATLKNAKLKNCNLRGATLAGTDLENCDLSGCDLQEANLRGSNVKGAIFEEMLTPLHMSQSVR
UniProt P08514, whole entry, looked up: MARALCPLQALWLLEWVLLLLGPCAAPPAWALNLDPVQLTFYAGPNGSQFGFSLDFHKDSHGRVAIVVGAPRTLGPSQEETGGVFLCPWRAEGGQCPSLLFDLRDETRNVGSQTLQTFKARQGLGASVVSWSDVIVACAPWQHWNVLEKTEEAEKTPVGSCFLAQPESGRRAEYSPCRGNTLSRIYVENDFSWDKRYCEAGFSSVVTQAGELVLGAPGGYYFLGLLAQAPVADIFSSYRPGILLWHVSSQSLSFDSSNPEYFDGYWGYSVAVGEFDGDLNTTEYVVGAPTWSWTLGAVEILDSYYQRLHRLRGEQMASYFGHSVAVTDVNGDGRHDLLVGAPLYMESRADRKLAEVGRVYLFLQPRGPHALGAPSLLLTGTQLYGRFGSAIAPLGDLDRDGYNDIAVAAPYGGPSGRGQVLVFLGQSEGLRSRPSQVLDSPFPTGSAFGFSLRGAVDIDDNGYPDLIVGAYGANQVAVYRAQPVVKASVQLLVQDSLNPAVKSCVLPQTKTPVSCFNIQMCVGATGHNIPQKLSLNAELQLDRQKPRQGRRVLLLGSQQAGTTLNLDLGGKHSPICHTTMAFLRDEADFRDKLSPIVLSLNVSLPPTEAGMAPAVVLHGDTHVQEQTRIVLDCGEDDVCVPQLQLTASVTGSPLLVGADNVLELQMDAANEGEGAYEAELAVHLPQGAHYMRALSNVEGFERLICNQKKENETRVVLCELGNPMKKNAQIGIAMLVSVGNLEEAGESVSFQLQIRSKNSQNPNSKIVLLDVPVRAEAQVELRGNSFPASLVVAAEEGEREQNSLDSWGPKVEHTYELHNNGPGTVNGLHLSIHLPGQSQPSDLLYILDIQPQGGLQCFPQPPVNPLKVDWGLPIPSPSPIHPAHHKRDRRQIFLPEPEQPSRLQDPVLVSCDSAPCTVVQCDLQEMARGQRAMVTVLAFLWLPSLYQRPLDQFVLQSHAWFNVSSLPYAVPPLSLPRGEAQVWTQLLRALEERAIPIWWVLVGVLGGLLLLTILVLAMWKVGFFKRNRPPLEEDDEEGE
UniProt O43736: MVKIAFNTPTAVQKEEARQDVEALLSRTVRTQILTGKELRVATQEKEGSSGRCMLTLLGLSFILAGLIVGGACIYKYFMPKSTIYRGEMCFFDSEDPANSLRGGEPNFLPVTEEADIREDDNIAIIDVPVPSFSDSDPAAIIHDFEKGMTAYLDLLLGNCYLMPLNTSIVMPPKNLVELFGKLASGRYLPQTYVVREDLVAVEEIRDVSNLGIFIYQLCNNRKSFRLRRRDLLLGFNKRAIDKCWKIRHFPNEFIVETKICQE
UniProt Q9Y597: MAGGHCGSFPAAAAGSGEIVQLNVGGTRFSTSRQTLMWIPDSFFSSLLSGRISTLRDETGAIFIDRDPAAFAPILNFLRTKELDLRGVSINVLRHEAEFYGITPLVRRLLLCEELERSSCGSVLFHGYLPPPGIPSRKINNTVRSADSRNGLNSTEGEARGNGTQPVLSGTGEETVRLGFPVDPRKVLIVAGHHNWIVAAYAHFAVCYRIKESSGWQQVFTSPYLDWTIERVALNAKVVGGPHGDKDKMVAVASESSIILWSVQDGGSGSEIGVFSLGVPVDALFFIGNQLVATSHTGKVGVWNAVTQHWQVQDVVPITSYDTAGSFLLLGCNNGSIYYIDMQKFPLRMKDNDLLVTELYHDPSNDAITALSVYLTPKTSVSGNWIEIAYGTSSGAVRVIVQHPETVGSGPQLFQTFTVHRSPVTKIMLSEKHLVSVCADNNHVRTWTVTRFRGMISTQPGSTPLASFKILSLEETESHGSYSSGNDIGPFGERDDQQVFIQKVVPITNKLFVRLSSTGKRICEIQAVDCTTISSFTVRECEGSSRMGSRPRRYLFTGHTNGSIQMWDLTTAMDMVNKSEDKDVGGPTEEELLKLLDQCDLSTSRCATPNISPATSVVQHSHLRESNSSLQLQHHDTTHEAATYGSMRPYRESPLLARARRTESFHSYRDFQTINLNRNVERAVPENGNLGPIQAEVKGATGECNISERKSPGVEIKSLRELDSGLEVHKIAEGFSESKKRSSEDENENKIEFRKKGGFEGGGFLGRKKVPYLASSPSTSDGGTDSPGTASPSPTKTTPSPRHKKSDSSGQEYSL
UniProt Q8WYB5, whole entry, looked up: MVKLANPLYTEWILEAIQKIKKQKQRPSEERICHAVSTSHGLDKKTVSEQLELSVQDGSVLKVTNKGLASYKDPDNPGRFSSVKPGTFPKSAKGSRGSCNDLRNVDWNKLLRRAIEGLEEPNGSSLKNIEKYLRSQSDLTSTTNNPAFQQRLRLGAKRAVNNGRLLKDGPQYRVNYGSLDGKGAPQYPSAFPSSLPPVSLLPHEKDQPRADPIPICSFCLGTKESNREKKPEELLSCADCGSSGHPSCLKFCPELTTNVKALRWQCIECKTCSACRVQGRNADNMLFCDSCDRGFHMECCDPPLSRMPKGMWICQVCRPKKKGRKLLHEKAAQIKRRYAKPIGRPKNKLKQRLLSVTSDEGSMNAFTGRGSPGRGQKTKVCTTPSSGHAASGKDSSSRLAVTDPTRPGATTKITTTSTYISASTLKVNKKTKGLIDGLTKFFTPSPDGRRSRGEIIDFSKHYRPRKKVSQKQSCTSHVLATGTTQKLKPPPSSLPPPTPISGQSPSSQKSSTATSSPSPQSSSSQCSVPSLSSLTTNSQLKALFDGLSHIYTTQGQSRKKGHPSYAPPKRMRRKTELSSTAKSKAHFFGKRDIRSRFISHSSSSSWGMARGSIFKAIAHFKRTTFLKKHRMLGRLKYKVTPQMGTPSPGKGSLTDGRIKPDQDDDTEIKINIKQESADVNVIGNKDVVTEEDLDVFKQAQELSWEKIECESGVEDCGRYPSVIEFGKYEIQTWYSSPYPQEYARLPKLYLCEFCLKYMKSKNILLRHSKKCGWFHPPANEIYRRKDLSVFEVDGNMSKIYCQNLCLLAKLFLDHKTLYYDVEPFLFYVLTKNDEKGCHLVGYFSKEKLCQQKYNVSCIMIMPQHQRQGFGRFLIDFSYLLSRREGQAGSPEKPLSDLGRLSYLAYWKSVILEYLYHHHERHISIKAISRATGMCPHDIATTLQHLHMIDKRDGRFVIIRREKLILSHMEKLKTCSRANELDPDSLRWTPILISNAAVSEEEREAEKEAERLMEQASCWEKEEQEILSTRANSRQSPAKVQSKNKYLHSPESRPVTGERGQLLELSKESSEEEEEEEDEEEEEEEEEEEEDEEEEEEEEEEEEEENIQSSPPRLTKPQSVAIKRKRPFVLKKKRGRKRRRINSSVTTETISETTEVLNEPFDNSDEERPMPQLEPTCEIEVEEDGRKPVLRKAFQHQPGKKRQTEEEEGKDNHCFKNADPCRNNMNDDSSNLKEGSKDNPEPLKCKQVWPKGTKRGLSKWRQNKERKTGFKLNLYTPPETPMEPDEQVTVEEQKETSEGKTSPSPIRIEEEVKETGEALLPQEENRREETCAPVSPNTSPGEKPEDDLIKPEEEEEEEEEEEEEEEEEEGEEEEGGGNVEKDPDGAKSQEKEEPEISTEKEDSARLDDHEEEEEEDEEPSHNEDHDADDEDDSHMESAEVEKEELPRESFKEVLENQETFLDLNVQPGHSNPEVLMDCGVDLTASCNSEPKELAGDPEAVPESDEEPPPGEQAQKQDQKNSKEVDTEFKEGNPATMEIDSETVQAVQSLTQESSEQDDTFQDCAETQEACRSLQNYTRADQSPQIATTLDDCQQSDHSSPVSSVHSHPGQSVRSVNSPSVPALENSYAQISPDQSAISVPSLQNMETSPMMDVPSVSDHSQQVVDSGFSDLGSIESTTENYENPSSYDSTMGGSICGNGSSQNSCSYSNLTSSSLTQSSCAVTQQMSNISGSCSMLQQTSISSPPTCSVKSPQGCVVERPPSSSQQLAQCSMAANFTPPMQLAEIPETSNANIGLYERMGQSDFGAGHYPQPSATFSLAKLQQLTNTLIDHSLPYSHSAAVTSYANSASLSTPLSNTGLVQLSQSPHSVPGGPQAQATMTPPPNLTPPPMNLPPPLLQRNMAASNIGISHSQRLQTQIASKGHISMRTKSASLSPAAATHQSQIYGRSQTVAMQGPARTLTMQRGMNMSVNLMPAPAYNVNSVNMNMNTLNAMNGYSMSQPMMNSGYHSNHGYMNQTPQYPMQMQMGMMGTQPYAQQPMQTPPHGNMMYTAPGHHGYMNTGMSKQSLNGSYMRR
UniProt Q9H9L3: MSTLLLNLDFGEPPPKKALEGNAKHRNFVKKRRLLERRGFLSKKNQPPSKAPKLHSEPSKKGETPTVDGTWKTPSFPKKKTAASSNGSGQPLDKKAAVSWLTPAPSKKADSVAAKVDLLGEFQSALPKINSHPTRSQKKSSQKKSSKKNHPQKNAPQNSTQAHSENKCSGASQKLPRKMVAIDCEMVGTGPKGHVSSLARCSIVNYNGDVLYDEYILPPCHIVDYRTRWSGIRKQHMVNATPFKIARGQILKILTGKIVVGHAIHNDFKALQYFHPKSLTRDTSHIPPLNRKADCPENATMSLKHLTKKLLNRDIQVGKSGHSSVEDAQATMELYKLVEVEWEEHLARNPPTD
UniProt Q9H910: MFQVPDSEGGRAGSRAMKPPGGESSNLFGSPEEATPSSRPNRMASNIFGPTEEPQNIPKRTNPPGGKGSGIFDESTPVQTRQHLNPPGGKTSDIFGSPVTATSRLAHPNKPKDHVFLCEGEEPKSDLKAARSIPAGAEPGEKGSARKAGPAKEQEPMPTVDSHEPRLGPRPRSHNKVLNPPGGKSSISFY
UniProt Q96AZ6: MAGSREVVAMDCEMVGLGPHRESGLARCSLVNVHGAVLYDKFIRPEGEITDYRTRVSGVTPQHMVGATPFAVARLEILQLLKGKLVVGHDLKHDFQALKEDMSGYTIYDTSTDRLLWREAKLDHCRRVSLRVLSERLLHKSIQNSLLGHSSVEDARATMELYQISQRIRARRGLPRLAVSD

[1] = compound: C/C(=N\NC(=O)C1=CC(=CC=C1)S(=O)(=O)N2CCOCC2)/C3=C(C=CC(=C3)Cl)O
Summary of the method: as §1

[2] = compound: C1=CC(=CC=C1C2=NC3=C(N2)C=C(C=C3)C(=O)N)OC4=CC=C(C=C4)Cl
Summary of the method: as §1

[3] = compound: C1=CC2=C(C=CC(=C2)/C=C\3/C(=O)NC(=NCC4=CC=CS4)S3)N=C1
Summary of the method: as §1

[4] = compound: C1=CC2=NC=CN=C2C=C1/C=C/3\C(=O)NC(=O)S3
Summary of the method: as §1

[5] = compound: C1=CC=C2C(=C1)C3=NNC4=CC=CC(=C43)C2=O
Summary of the method: as §1

[6] = compound: C1CCN(C1)C(=O)NC2=CC=CC(=C2)NC3=NC=C(C(=N3)NCCC4=CN=CN4)Br
Summary of the method: as §1

[7] = compound: C1CN(CCC1(CC2=CC=C(C=C2)Cl)N)C3=NC=NC4=C3C=CN4
Summary of the method: as §1

[8] = compound: C1=CC=C(C=C1)C2=NC(=C(N2)C3=CC=NC=C3)C4=CC(=C(C=C4)Cl)O
Summary of the method: as §1

IRAK-1-4 Inhibitor I = compound: C1COCCN1CCN2C3=CC=CC=C3N=C2NC(=O)C4=CC(=CC=C4)[N+](=O)[O-] [IRAK-1-4 Inhibitor I]
Summary of the method: as §1

Measured: log2 fold change

IQCB1 (UniProt Q15051)
inactive: erlotinib 0.278 | [1] -0.129 | [2] 0.025 | [3] -0.077 | [4] -0.052 | [5] 0.059 | [6] 0.019 | [7] -0.027

ISCA1 isoform 2 (UniProt Q9BUE6)
inactive: erlotinib -0.025 | [1] -0.036 | [2] 0.021 | [3] -0.007 | [4] -0.04 | [8] -0.033 | [5] -0.013 | [6] 0.003 | [7] -0.031 | IRAK-1-4 Inhibitor I 0.031

KCNK5 (UniProt O95279)
inactive: erlotinib -0.177 | [1] 0.049 | [2] -0.133 | [3] 0.265 | [4] -0.167 | [5] -0.151

ITGB1 (UniProt P05556)
inactive: erlotinib 0.006 | [1] -0.038 | [2] 0.008 | [3] -0.001 | [4] -0.011 | [8] -0.014 | [5] 0.004 | [6] 0.008 | [7] 0.009 | IRAK-1-4 Inhibitor I 0.018

ITGAE (UniProt P38570)
inactive: erlotinib 0.079 | [1] -0.165 | [2] 0.146 | [3] -0.06 | [4] -0.073 | [8] 0.133 | [5] -0.09 | [6] -0.082 | [7] 0.016 | IRAK-1-4 Inhibitor I -0.086

KDELR1 (UniProt P24390)
inactive: erlotinib -0.04 | [1] -0.244 | [2] 0.046 | [3] 0.065 | [4] -0.097 | [8] -0.074 | [5] -0.181 | [6] -0.03 | [7] 0.054 | IRAK-1-4 Inhibitor I -0.067

IPO5 (UniProt H0Y3V4)
inactive: erlotinib 0.057 | [1] -0.382 | [2] 0.138 | [3] 0.207 | [8] 0.08 | [5] 0.382 | [6] -0.219 | [7] 0.107 | IRAK-1-4 Inhibitor I -0.017

KAT14 (UniProt Q9H8E8)
inactive: erlotinib 0.05 | [1] 0.205 | [2] -0.06 | [3] -0.012 | [4] -0.102 | [5] 0.035 | [6] -0.031 | [7] 0.013

JMJD6 isoform 3 (UniProt Q6NYC1)
inactive: erlotinib -0.052 | [1] -0.239 | [2] 0.062 | [3] 0.001 | [4] -0.018 | [8] -0.007 | [5] 0.083 | [6] 0.017 | [7] 0.036 | IRAK-1-4 Inhibitor I 0.009

ITGB5 (UniProt P18084)
inactive: erlotinib -0.015 | [1] -0.07 | [2] 0.022 | [3] -0.051 | [4] -0.012 | [8] -0.028 | [5] -0.038 | [6] 0.027 | [7] -0.024 | IRAK-1-4 Inhibitor I 0.005

Three successive records already listed:
KDELR1 (UniProt P24390)
inactive: erlotinib -0.04 | [1] -0.244 | [2] 0.046 | [3] 0.065 | [4] -0.097 | [8] -0.074 | [5] -0.181 | [6] -0.03 | [7] 0.054 | IRAK-1-4 Inhibitor I -0.067

IPO5 (UniProt H0Y3V4)
inactive: erlotinib 0.057 | [1] -0.382 | [2] 0.138 | [3] 0.207 | [8] 0.08 | [5] 0.382 | [6] -0.219 | [7] 0.107 | IRAK-1-4 Inhibitor I -0.017

KAT14 (UniProt Q9H8E8)
inactive: erlotinib 0.05 | [1] 0.205 | [2] -0.06 | [3] -0.012 | [4] -0.102 | [5] 0.035 | [6] -0.031 | [7] 0.013

(next part)

KCTD9 (UniProt Q7L273)
inactive: erlotinib 0.114 | [1] -0.123 | [2] -0.141 | [3] -0.037 | [4] 0.013 | [8] 0.062 | [5] 0.063 | [6] 0.058 | [7] 0.02 | IRAK-1-4 Inhibitor I -0.109

ITM2B (UniProt Q9Y287)
inactive: erlotinib -0.039 | [1] 0.225 | [2] 0.02 | [3] -0.202 | [4] 0.026 | [8] 0.005 | [5] 0.052 | IRAK-1-4 Inhibitor I 0.023

ITGA2B (UniProt P08514)
inactive: erlotinib 0.068 | [1] -0.049 | [2] -0.225 | [3] -0.045 | [8] -0.027 | [5] -0.163 | IRAK-1-4 Inhibitor I 0.143

KAT5 isoform 3 (UniProt Q92993)
inactive: erlotinib -0.006 | [1] 0.028 | [2] -0.018 | [3] 0.036 | [4] 0.008 | [5] 0.114 | [6] 0.155 | [7] 0.158

ITM2A (UniProt O43736)
inactive: erlotinib -0.017 | [1] -0.002 | [2] -0.022 | [3] 0.078 | [4] 0.058 | [8] -0.013 | [5] 0.001 | [6] -0.036 | [7] 0.031 | IRAK-1-4 Inhibitor I -0.001

KCNK1 (UniProt O00180)
inactive: erlotinib 0.024 | [1] 0.109 | [2] -0.049 | [3] -0.246 | [4] -0.161 | [5] -0.091 | [6] 0.005 | [7] 0.011

KCTD3 (UniProt Q9Y597)
inactive: erlotinib -0.006 | [1] 0.005 | [2] 0.031 | [3] 0.011 | [4] -0.019 | [8] -0.002 | [5] -0.056 | [6] -0.034 | [7] 0.023 | IRAK-1-4 Inhibitor I -0.021

KAT6B (UniProt Q8WYB5)
inactive: erlotinib 0.023 | [1] 0.046 | [2] -0.101 | [3] -0.034 | [4] -0.072 | [8] 0.062 | [5] 0 | [6] -0.06 | [7] -0.003 | IRAK-1-4 Inhibitor I -0.168

KCTD7 (UniProt Q96MP8)
inactive: erlotinib 0.153 | [1] 0.29 | [2] -0.026 | [3] 0.021 | [8] -0.156 | [5] 0.107 | [6] -0.074 | [7] 0.023 | IRAK-1-4 Inhibitor I -0.151

KDF1 (UniProt Q8NAX2)
inactive: erlotinib -0.024 | [1] -0.039 | [2] 0.032 | [3] 0.104 | [4] -0.049 | [5] -0.036

KDELR2 (UniProt P33947)
inactive: erlotinib 0.025 | [1] 0.037 | [2] 0.048 | [3] -0.069 | [4] 0.045 | [8] -0.063 | [5] -0.037 | [6] -0.094 | [7] -0.008 | IRAK-1-4 Inhibitor I 0.114

IREB2 (UniProt P48200)
inactive: erlotinib -0.006 | [1] -0.003 | [2] -0.001 | [3] 0.012 | [4] -0.02 | [8] -0.02 | [5] 0.021 | [6] -0.003 | [7] 0.005 | IRAK-1-4 Inhibitor I 0.013

ISG20L2 (UniProt Q9H9L3)
inactive: erlotinib -0.002 | [1] -0.099 | [2] -0.03 | [3] -0.075 | [8] 0.104 | [5] 0.033 | [6] 0.015 | [7] -0.063 | IRAK-1-4 Inhibitor I 0.032

IST1 isoform 2 (UniProt P53990)
inactive: erlotinib -0.024 | [1] -0.455 | [2] -0.059 | [3] -0.055 | [8] 0.049 | [5] 0.07 | [6] 0.035 | [7] -0.164 | IRAK-1-4 Inhibitor I 0.022

IPP (UniProt Q9Y573)
inactive: erlotinib -0.04 | [1] -0.192 | [2] -0.017 | [3] -0.181 | [8] 0.025 | [5] -0.105 | [6] 0.179 | [7] 0.041 | IRAK-1-4 Inhibitor I -0.035

IPO7 (UniProt O95373)
inactive: erlotinib 0.023 | [1] -0.005 | [2] 0 | [3] -0.018 | [4] 0.009 | [8] -0.014 | [5] 0.006 | [6] 0 | [7] 0.032 | IRAK-1-4 Inhibitor I 0.01

JPT2 isoform 2 (UniProt Q9H910)
inactive: [4] 0.127

JMJD7 (UniProt P0C870)
inactive: erlotinib -0.012 | [2] -0.005 | [4] -0.148 | [8] 0.117 | [6] 0.085 | [7] 0.184 | IRAK-1-4 Inhibitor I -0.227

ITGB1BP2 (UniProt Q9UKP3)
inactive: [1] 0.017 | [3] -0.001 | [5] 0.039 | [6] -0.117 | [7] 0.09

ISG20 (UniProt Q96AZ6)
inactive: erlotinib -0.225 | [2] 0.036 | [4] 0.018

INTU (UniProt Q9ULD6)
inactive: [1] -0.051 | [3] -0.384 | [8] -0.094 | [5] -0.072 | IRAK-1-4 Inhibitor I 0.346

IRF9 (UniProt Q00978)
inactive: erlotinib 0.055 | [2] -0.129 | [8] -0.197 | IRAK-1-4 Inhibitor I 0.167

Reference: the supplement of paper PMC10849652
